According to the supplement of paper PMC10735217:
Where a name gives a salt, the structure may show the parent alone. Some of the results follow. Single values are uncertain here, since repeats match poorly.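 The human kidney-derived cells carry a stably integrated construct of eight TEAD-binding elements driving luciferase, read by luminescence in a drug-repurposing library screen. A compound counts as a hit when its signal is more than five robust Z scores above the plate mean.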

Test system: HEK293A TEAD-LUC reporter
Assay: TEAD-luciferase reporter activity (YAP activation), robust Z score vs plate; higher = stronger YAP/TEAD activation
Conditions: 24 h

Compound | TEAD-luciferase reporter activity (compound concentration: 200 nM) | TEAD-luciferase reporter activity (compound concentration: 2 uM) | TEAD-luciferase reporter activity (compound concentration: 10 uM)
N=C(/N=N/C(=N)NCl)NCl | inactive: -0.943 | inactive: -1.64 | inactive: 0.101
C[C@]12C=CC(=O)C=C1CC[C@@H]1C2CC[C@]2(C)OC(=O)CCC12 (stereo partly specified) [Testolactone] | inactive: -1.42 | inactive: 1.27 | inactive: 3.24
C[C@]12CCC3C(CCC4=C(Cl)C(=O)CC[C@@]43C)C1CCC2O (stereo partly specified) | inactive: 0.273 | inactive: 0.783 | inactive: 2.53
Cc1cccc(NC(=O)NC2N=C(C3CCCCC3)c3ccccc3N(C)C2=O)c1 (stereo unspecified) | inactive: -1.34 | inactive: -0.714 | inactive: 3.48
N=C(N)NCCC[C@@H](NC(=O)[C@@H](N)Cc1ccc(O)cc1)C(=O)NCC(=O)N[C@@H](Cc1ccc([N+](=O)[O-])cc1)C(=O)N1CCC[C@H]1C(N)=O | inactive: -0.419 | inactive: -0.0521 | inactive: 0.455
C=CCC1(CC=C)C(=O)NC(=O)NC1=O | inactive: -0.428 | inactive: -0.946 | inactive: 2.43
Cc1sc2ccccc2c1CC1=NCCN1 | inactive: -0.102 | inactive: -1.18 | inactive: 1.29
CCC(C)C(C)(COC(N)=O)COC(=O)NC(C)C (stereo unspecified) | inactive: 1.1 | inactive: -0.458 | inactive: -0.42
CCC1(c2ccccc2)C(=O)N(COC)C(=O)N(COC)C1=O [eterobarb] | inactive: -0.466 | inactive: -1.34 | inactive: -0.0203
CNC(C)(C)Cc1ccccc1 | inactive: -0.84 | inactive: -0.669 | inactive: 0.492
CC(C)CC1C(=O)N2CCCC2C2(O)OC(NC(=O)C3CC4c5cccc6[nH]cc(c56)CC4N(C)C3)(C(C)C)C(=O)N12 (stereo unspecified) [dihydroergocryptine] | – | inactive: -1.36 | –
CC(C)CC1C(=O)N2CCCC2C2(O)OC(NC(=O)C3CC4c5cccc6[nH]cc(c56)CC4N(C)C3)(C(C)C)C(=O)N12 (stereo unspecified) [dihydroergocryptine, Poli] | inactive: -0.326 | – | inactive: -2.85
Cc1csc(Cl)c1NC1=NCCN1 [Tiamenidine] | inactive: -0.799 | inactive: -1.89 | inactive: 0.854
CC1=Cc2cc3c(cc2C(c2ccc(N)cc2)=NN1)OCO3 | inactive: -0.663 | inactive: 1.62 | inactive: 0.0691
Cn1ccc2c(Nc3cccc(Cl)c3)ncc(C(=O)N3CCOCC3)c21 | inactive: -1.16 | inactive: -0.103 | inactive: -0.128
C[N+]1(C)CCOC(O)(c2ccc(-c3ccc(C4(O)C[N+](C)(C)CCO4)cc3)cc2)C1 (stereo unspecified) | inactive: 0.213 | inactive: 1.04 | inactive: -0.184
Cc1ccccc1-n1c(CF)nc2ccc(N)cc2c1=O [afloqualone] | inactive: -0.697 | inactive: -1.24 | inactive: -0.905
CN1C(=O)C(NC(=O)NC(CC2CCCCC2)C(O)CSc2nnnn2C)N=C(c2ccccc2)c2ccccc21 (stereo unspecified) | inactive: -0.668 | inactive: -0.791 | inactive: -1.09
CC[C@@]1(O)C(=O)OCc2c1cc1n(c2=O)C(OCCO)c2cc3ccccc3nc2-1 (stereo partly specified) | inactive: -0.105 | inactive: -0.535 | inactive: -1.44
CN1c2ccccc2C(c2ccccc2)=NCC1CCNC(=O)c1ccc(F)cc1 (stereo unspecified) | inactive: -2.45 | inactive: -1.74 | inactive: 0.233
COc1ccsc1CNCC[C@@]1(c2ccccn2)CCOC2(CCCC2)C1 | inactive: 0.308 | inactive: 1.15 | inactive: -1.67
CCCC1(c2cccc(O)c2)CCN(C)C1 (stereo unspecified) | inactive: -1.3 | inactive: -0.343 | inactive: 0.301
Cc1cccc(NC(=O)N[C@@H]2N=C(c3ccccc3)c3ccccc3N(C)C2=O)c1 | inactive: -0.0605 | inactive: 0.446 | inactive: 2.18
CC(Cc1ccc2c(c1)OCO2)NCC(O)c1ccc(O)c(O)c1 (stereo unspecified) | inactive: -0.0169 | inactive: 0.336 | inactive: 4.14
CC(C)(O)C(Cl)(Cl)Cl | inactive: 0.0883 | inactive: -0.102 | inactive: 1.67
[Hg+][c]1ccccc1 | inactive: -0.311 | inactive: 1.69 | active: 9.7
CCCNC(=O)c1c(NC(=O)C23CC4CC(CC(C4)C2)C3)sc2c1CCOC2 | inactive: 0.435 | inactive: 1.41 | inactive: -0.267
O=C(c1ccncc1)N1CC2CCC(C1)N2Cc1ccc(Cl)cc1 | inactive: 0.0731 | – | inactive: 0.661

Compound | TEAD-luciferase reporter activity (compound concentration: 200 nM) | TEAD-luciferase reporter activity (compound concentration: 2 uM) | TEAD-luciferase reporter activity (compound concentration: 10 uM)
Fc1ccc(F)c2c1OC1CNCC1O2 (stereo unspecified) | inactive: -2.79 | inactive: 0.127 | inactive: -1.29
C#C[C@]1(OC(=O)CCCCCC)CC[C@H]2[C@@H]3CCC4=CC(=O)CC[C@@H]4[C@H]3CC[C@@]21C [Norethisterone enanthate] | inactive: -0.386 | inactive: 3.31 | inactive: -1.75
O=c1[nH]c2ccccc2n1CCCN1CCC(n2c(=O)[nH]c3cc(Cl)ccc32)CC1 [domperidone] | inactive: -0.422 | inactive: -0.25 | inactive: 3.93
C[C@@H]1CN([C@H]2CC[C@](C#N)(c3ccc(F)cc3)CC2)CC[C@]1(C(=O)O)c1ccccc1 [levocabastine] | – | inactive: 1.78 | –
C[C@@H]1CN([C@H]2CC[C@](C#N)(c3ccc(F)cc3)CC2)CC[C@]1(C(=O)O)c1ccccc1 [Levocabastine HCl] | inactive: -0.785 | – | inactive: -0.555
CNCC(OC)c1cccc(C(F)(F)F)c1 (stereo unspecified) | inactive: 1.23 | inactive: 1.96 | inactive: -0.122
O=[N+]([O-])NC1=NCCN1Cc1ccc(Cl)nc1 [Imidacloprid] | inactive: 0.447 | inactive: 0.681 | inactive: -1.21
O=S(=O)([O-])CCNCl [N-Chlorotaurine] | inactive: -0.362 | inactive: 2.88 | inactive: 0.0769
COc1ccc(NC(=S)N2CCc3c(sc4c3C(c3ccccc3Cl)=NCc3nnc(C)n3-4)C2)cc1 | inactive: 0.29 | inactive: -2.03 | inactive: -2.3
CNCCc1cnc[nH]1 [N'-Methylhistamine] | inactive: -0.726 | inactive: -0.884 | inactive: -0.729
C[C@@H](NC(=O)[C@@H](N)Cc1ccc(O)cc1)C(=O)NCC(=O)N[C@@H](Cc1ccc([N+](=O)[O-])cc1)C(=O)N1CCC[C@H]1C(N)=O | inactive: -1.98 | inactive: -0.348 | inactive: 1.74
CC(C(O)c1ccccc1)N(C)C/C=C/c1ccccc1 (stereo unspecified) | inactive: -0.994 | inactive: -0.861 | inactive: -2.32
C[C@]12CC[C@@H]3c4ccc(OC(=O)N(CCCl)CCCl)cc4CC[C@H]3[C@@H]1CC[C@@H]2O | inactive: -2.34 | inactive: -1.05 | inactive: -0.804
CCC(C)C1(CC)C(=O)N=C([S-])NC1=O (stereo unspecified) [Inactin hydrate] | inactive: -1.98 | – | inactive: 0.0522
COP(=O)(OC)OC=C(Cl)Cl | inactive: 2.93 | inactive: 1.22 | inactive: 2.13
CC(C)N(C(=O)CN1C(=O)C(NC(=O)Nc2cccc(C(=O)O)c2)C(=O)N(c2ccccc2)c2ccccc21)c1ccccc1 (stereo unspecified) | inactive: -1.43 | inactive: -0.617 | inactive: 1.6
CC1(C)C(C=C(Cl)Cl)C1C(=O)OCc1cccc(Oc2ccccc2)c1 (stereo unspecified) [permethrin 5%] | – | inactive: 0.603 | –
CC1(C)C(C=C(Cl)Cl)C1C(=O)OCc1cccc(Oc2ccccc2)c1 (stereo unspecified) [permethrin 5%, Foamix] | inactive: 0.384 | – | inactive: 0.177
C[C@](O)(COc1ccc(C#N)cc1)C(=O)Nc1ccc(C#N)c(C(F)(F)F)c1 [enobosarm] | inactive: -0.165 | inactive: -0.724 | inactive: 3.38
CN1C[C@H]2[C@H]3CC[C@H](C3)[C@@]2(c2ccc(Cl)c(Cl)c2)C1 | inactive: -1.82 | inactive: -1.27 | inactive: 0.752
O=C(C1CCCN1C(=O)C1CC1)N1CCC(N2Cc3ccccc3C2=O)CC1 (stereo unspecified) | inactive: -1.08 | – | inactive: 1.54
CC(=O)[C@@]1(O)CC[C@H]2[C@@H]3CCC4=CC(=O)CC[C@]4(C)[C@@]3(F)[C@@H](O)C[C@@]21C | inactive: -0.339 | inactive: 0.731 | inactive: 3.05
CCCC(C)C1(CC)C(=O)NC(=O)N=C1[O-] (stereo unspecified) | inactive: 0.775 | inactive: 0.41 | inactive: 1.11
CCCCCCCCCCCCCC(=O)O[C@H](CCCCCCCCCCC)CC(=O)N[C@H]1[C@H](OC[C@H]2O[C@H](O)[C@H](NC(=O)C[C@H](O)CCCCCCCCCCC)[C@@H](OC(=O)C[C@H](O)CCCCCCCCCCC)[C@@H]2O)O[C@H](CO)[C@@H](OP(=O)(O)O)[C@@H]1OC(=O)C[C@@H](CCCCCCCCCCC)OC(=O)CCCCCCCCCCCCC [Lipid A monophosphoryl] | inactive: 1.99 | – | inactive: -0.521
CN1C(=O)N(C)C2(CCN(C(=O)C3Cc4cc(Cl)ccc4N3)CC2)C1=O (stereo unspecified) | inactive: -1.27 | inactive: -0.698 | inactive: 1.99
O=C1CN=C(c2ccccc2F)c2cc(Cl)ccc2N1 [metabolite DESALKYLFLURAZEPAM] | inactive: -0.844 | – | inactive: -0.531
N[C@@H](Cc1ccc(O)cc1)C(=O)N[C@H](CCCCNC=O)C(=O)NCC(=O)N[C@@H](Cc1ccccc1)C(=O)N[C@H]1CCSC1=O [ociltide] | inactive: 0.437 | inactive: -1.08 | inactive: 0.437

Shown in CSV form: entries from further up.
Compound,TEAD-luciferase reporter activity (compound concentration: 200 nM),TEAD-luciferase reporter activity (compound concentration: 2 uM),TEAD-luciferase reporter activity (compound concentration: 10 uM)
C#C[C@]1(OC(=O)CCCCCC)CC[C@H]2[C@@H]3CCC4=CC(=O)CC[C@@H]4[C@H]3CC[C@@]21C [Norethisterone enanthate],inactive: -0.386,inactive: 3.31,inactive: -1.75
CN1C[C@H]2[C@H]3CC[C@H](C3)[C@@]2(c2ccc(Cl)c(Cl)c2)C1,inactive: -1.82,inactive: -1.27,inactive: 0.752
